Results from paper PMC5526262.

Tested on: AcrC (formerly MalR), LacI family regulator (Actinoplanes sp. SE50/110 (ATCC 31044))
Assay: competition with a labelled probe
Conditions: 12.5 pmol unlabeled competitor, complete displacement from 50-fold excess, partial at 25-fold; 20 uL; 1x EMSA buffer (20 mM Na2HPO4, 75 mM KCl, 5% glycerol, pH 8), 2.5 mM MgCl2, 0.1 mM EDTA, 0.05 ug herring sperm DNA, 0.1 ug BSA, 20 min at room temperature; recombinant protein; protein details: C-terminal His6

| Sequence | binding result |
| --- | --- |
| AAGAACTTGCTGTTTTAGCAAGAAGTT (double strand) [Displacement oligo 1 (acrC site acbE, O1)] | binds |
| AAGCTCTTGCAGTCAATGGAAGGGCTT (double strand) [Displacement oligo 3 (acrC site acrC)] | binds |
| GTCTTCTGCAAGTTCTTGCAGCGGTC (double strand) [Displacement oligo 2 (acrC site acbD, O2)] | binds |

For at least one entry, the source does not settle the construct or the ends of the probe. At least one verdict was read from the data and is not stated in words by the source.
